This passage reports binding results from article PMC10616125.

Protein sequences, listed by entry. Tags and fused reporters are not part of them.
UniProt P68104: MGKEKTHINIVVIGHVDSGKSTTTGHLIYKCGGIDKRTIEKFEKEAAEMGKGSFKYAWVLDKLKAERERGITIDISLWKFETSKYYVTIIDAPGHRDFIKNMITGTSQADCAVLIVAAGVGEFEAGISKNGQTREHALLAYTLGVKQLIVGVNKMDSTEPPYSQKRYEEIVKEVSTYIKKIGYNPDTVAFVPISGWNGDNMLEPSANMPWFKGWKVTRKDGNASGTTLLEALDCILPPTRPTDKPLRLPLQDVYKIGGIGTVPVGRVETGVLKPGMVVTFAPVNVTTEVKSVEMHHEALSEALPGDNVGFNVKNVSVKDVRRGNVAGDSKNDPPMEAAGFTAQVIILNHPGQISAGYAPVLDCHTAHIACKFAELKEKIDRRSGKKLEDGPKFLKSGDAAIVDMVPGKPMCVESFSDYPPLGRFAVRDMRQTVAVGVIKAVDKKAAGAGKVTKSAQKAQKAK
UniProt P07355: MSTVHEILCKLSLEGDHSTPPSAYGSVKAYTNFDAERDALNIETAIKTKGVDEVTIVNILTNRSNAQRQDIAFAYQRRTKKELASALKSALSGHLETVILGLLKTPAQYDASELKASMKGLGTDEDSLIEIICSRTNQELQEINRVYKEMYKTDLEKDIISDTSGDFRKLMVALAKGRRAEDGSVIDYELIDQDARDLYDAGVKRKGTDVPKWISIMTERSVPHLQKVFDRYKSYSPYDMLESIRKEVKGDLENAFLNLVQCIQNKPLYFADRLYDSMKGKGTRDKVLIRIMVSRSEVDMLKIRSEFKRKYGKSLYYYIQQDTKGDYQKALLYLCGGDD

This test addresses T1, membrane palmitoylated protein 2 (MPP2), wild type (human) (UniProt Q14168).
T1 sequence: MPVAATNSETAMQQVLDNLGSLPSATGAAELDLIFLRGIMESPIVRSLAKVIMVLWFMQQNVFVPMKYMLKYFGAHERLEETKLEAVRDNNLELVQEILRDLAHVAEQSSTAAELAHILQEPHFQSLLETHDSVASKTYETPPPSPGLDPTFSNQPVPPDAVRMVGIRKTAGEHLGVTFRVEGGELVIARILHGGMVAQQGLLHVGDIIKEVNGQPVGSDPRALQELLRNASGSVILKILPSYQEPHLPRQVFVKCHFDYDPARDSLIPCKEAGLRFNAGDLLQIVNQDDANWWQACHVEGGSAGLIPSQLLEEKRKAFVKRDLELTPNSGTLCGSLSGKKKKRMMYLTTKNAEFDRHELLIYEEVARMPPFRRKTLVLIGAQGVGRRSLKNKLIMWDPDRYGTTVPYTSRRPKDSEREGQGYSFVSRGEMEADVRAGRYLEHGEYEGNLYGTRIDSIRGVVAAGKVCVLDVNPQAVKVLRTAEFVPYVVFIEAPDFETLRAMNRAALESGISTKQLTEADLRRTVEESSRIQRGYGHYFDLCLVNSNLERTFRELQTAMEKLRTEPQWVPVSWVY
Nature of the test: affinity purification with mass spectrometry; MPP2 pulled down by IP with anti-MPP2 antibody and protein G agarose at 4 °C from ARPE19 cells transduced with wild-type or MPP2-N315 mutant, treated with MG132 (10 μm) for 8 h; LC-MS/MS.

These are yes or no findings as the source states them, for the method shown. Binding seen in cells or lysates may run through a third protein. Here binding means that the protein was enriched with, or labelled near, the bait; the list need not be complete.

In the case of EEF1A1 (from UniProt P68104 1-462), the binding result was “binds”.

With “annexin A2 (ANXA2) (from UniProt P07355 1-339)”, the binding entry is “binds”.
